Experimental data as given in PMC11598875.
No constants are given. Whether binding was seen depends on the method and setting. Some binding calls cover weakened binding; strength is not graded here.

Sequences of proteins named here, by UniProt entry; tags and fusion partners are left off.
UniProt P03713: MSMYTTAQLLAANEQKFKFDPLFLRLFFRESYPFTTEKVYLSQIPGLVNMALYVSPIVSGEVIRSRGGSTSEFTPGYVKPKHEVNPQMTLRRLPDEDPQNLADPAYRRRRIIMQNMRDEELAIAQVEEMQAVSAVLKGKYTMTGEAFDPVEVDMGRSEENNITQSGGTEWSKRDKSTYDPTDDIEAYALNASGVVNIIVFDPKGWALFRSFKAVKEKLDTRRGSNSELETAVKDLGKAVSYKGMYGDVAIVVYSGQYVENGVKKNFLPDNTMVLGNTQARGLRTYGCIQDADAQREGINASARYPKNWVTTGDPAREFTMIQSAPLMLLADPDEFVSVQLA

Experiments:
[1] = target: phage lambda phage-like particles (expanded shells of the major capsid protein gpE) (bacteriophage lambda) (UniProt P03713); experiment: native gel or EMSA; both purified
[2] = target: T1, bacteriophage lambda decoration protein gpD (bacteriophage lambda), P03712; experiment: AUC; sedimentation velocity, 20 °C, 50,000 rpm; 10 mM sodium phosphate pH 6.6, 1.8 mM KH2PO4, 137 mM NaCl, 2.7 mM KCl; three concentrations, 11–63 μM; both purified; settings: remark: other sources report otherwise
T1 chain: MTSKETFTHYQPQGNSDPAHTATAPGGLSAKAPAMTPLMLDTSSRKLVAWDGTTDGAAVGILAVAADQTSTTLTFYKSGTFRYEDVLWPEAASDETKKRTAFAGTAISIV

**Q.** Which binding [1] does the source give for “bacteriophage lambda decoration protein gpD (from UniProt P03712 1-110)” here?
**A.** binds

B1: bacteriophage lambda decoration protein gpD, P03712 1-110 (protein)
chain: MTSKETFTHYQPQGNSDPAHTATAPGGLSAKAPAMTPLMLDTSSRKLVAWDGTTDGAAVGILAVAADQTSTTLTFYKSGTFRYEDVLWPEAASDETKKRTAFAGTAISIV
**Q.** How did the binding [2] turn out when B1 was run?
**A.** no binding (tested: 11–63 μM)
